No signal at the amounts used counts as a negative. For some assays here: Construct, isoform or probe ends are uncertain for at least one entry.
What was measured:
[1] = biological target: human serum albumin (HSA) (Homo sapiens) (UniProt P02768); assay: fluorescence beacon displacement; settings: 250 nM protein; commercial protein; label: 5'-FAM and 3'-BHQ1 on MB-20
[2] = test system: myoglobin (Mb); assay: fluorescence beacon displacement; settings: 250 nM protein; commercial protein; label: 5'-FAM and 3'-BHQ1 on MB-20

CCGCCCAAATCCCGAAGGGAAGAGTGTAATGACGTCAAACCAGACACATTACACACGCA / CGCGCGTGTAATGTGTCTGGTTTGAGCGCG [M5-5/MB-20 partial duplex]
binding result [1]: no binding
binding result [2]: no binding

Source: PMC9457990
